# Source: the supplement of paper PMC10727501
# The list shows a part of the results. Single values are uncertain here, since repeats match poorly.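 Researchers measured free-swimming zebrafish larvae's O-bend response probability to dark flashes (naive: first five; training: remaining flashes of four 60-flash blocks; test: later 60-flash block) and OMR turning toward alternating leftward/rightward LED motion. Six treated larvae were compared to sixty 0.1% DMSO controls, with |SSMD|≥2 marking a hit.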
# Columns and labels:
# Settings in all cases: 10 µM; pre-incubation: 30-90 min
# [1] = tested on: Danio rerio larvae (5 dpf, TLF); experiment: OMR-Perf (SSMD vs DMSO vehicle); higher = higher than vehicle (e.g. higher dark-flash O-bend response probability, or better optomotor performance)
# [2] = tested on: Danio rerio larvae (5 dpf, TLF); experiment: Prob-Test (SSMD vs DMSO vehicle); higher = higher than vehicle (e.g. higher dark-flash O-bend response probability, or better optomotor performance)
# [3] = tested on: Danio rerio larvae (5 dpf, TLF); experiment: Prob-Naive (SSMD vs DMSO vehicle); higher = higher than vehicle (e.g. higher dark-flash O-bend response probability, or better optomotor performance)
# [4] = tested on: Danio rerio larvae (5 dpf, TLF); experiment: Prob-Train (SSMD vs DMSO vehicle); higher = higher than vehicle (e.g. higher dark-flash O-bend response probability, or better optomotor performance)
SMILES,OMR-Perf [1],Prob-Test [2],Prob-Naive [3],Prob-Train [4]
CN(C)CCN1C(=O)c2ccccc2N(C)c2ccccc21.Cl [Dibenzepine HCl],-0.414,-0.302,0.433,-0.292
Cc1ccc(NC(=O)c2ccc(CN3CCN(C)CC3)cc2)cc1Nc1nc(-c2cccnc2)cs1 [Masitinib (AB1010)],0.138,-0.0499,0.147,0.14
COc1ccc(C[C@H](NC(=O)[C@H](C)NC(=O)CN2CCOCC2)C(=O)N[C@@H](Cc2ccccc2)C(=O)[C@]2(C)CO2)cc1,-0.62,0.0377,0.493,0.18
O=C1Nc2cc(Br)ccc2/C1=C1/Nc2ccccc2/C1=N/O,-0.724,-1.04,-0.842,-1.2
Cl.N=c1ccn2c(n1)O[C@@H]1[C@@H](O)[C@@H](CO)O[C@H]12 [Cyclocytidine HCl],-0.704,0.45,-0.0681,0.162
O=c1ccc2ccccc2o1 [Coumarin],0.0321,-0.369,-0.202,-0.44
CCOC(=O)O[C@@]1(C(=O)OCCl)CC[C@H]2[C@@H]3CCC4=CC(=O)C=C[C@]4(C)[C@@H]3[C@H](O)C[C@@]21C [Loteprednol etabonate],0.0384,0.549,0.0939,0.501
COc1ccc(S(=O)(=O)N(C(C)=O)c2ccccc2/C=C/c2cc[n+]([O-])cc2)cc1,-0.0279,0.111,-0.102,-0.445
NC(=O)c1cccnc1 [Nicotinamide (Vitamin B3)],-0.0454,-0.0465,-0.503,-0.353
CS(=O)(=O)O.N#CC1(c2ccc(NC(=O)c3cccnc3NCc3ccncc3)cc2)CCCC1 [Apatinib],-0.497,-0.0862,0.0878,-0.568
Nc1nc(=O)c2c([nH]1)NC[C@H](CNc1ccc(C(=O)N[C@@H](CCC(=O)[O-])C(=O)[O-])cc1)N2C=O.[Ca+2] [Calcium levofolinate (Calcium Folinate)],-0.177,-0.288,0.421,-0.266
CN(C)Cc1c(C(=O)NCCOc2ccc(C(=O)NO)cc2)oc2ccccc12,-0.177,0.05,0.0243,0.28
"COc1cc2c(cc1Cc1cccc(Cl)c1F)c(=O)c(C(=O)O)cn2[C@H](CO)C(C)C [Elvitegravir (GS-9137, JTK-303)]",-0.477,0.0909,-0.0101,-0.0651
C[C@@]1(c2nc3c(C(N)=O)cccc3[nH]2)CCCN1 [Veliparib (ABT-888)],-0.00536,0.108,-0.133,-0.223
C[C@@H](c1ncncc1F)[C@](O)(Cn1cncn1)c1ccc(F)cc1F [Voriconazole],0.455,-0.0471,-0.391,-0.00902
C=CC(=O)Nc1ccc2ncnc(Nc3cccc(Br)c3)c2c1,0.394,-0.34,-0.17,-0.801
Nc1c(CC(=O)[O-])cccc1C(=O)c1ccc(Br)cc1.[Na+] [Bromfenac Sodium],0.366,-0.464,-0.144,-0.561
Cn1ncnc1[C@H]1c2n[nH]c(=O)c3cc(F)cc(c23)N[C@@H]1c1ccc(F)cc1,-0.0189,-0.6,0.146,-0.0364
CO[C@H]1/C=C/O[C@@]2(C)Oc3c(C)c(O)c4c(O)c(c(/C=N/N5CCN(C)CC5)c(O)c4c3C2=O)NC(=O)/C(C)=C/C=C/[C@H](C)[C@H](O)[C@@H](C)[C@@H](O)[C@@H](C)[C@H](OC(C)=O)[C@@H]1C [Rifampin],-0.471,0.322,0.255,0.377
CN(C)[C@@H]1C(O)=C(C(N)=O)C(=O)[C@@]2(O)C(O)=C3C(=O)c4c(O)ccc(Cl)c4[C@@](C)(O)C3C[C@@H]12.Cl (stereo not given in full) [Chlortetracycline HCl],0.778,-0.497,0.28,-0.347
CCCCC1C(=O)N(c2ccccc2)N(c2ccccc2)C1=O [Phenylbutazone],0.698,0.145,-0.0365,-0.485
CCCC(CCC)C(=O)[O-].[Na+] [Valproic acid sodium salt (Sodium valproate)],-0.774,-1.05,-0.409,-0.786
CCCCN1CCCCC1C(=O)Nc1c(C)cccc1C.Cl (stereo not given) [Bupivacaine HCl],0.0799,-0.211,0.028,-0.41
CCCCOc1cc(C(=O)OCCN(CC)CC)ccc1N.Cl [Oxybuprocaine HCl],-0.27,-0.626,0.312,-0.26
CO[C@H]1/C=C/O[C@@]2(C)Oc3c(C)c(O)c4c(c3C2=O)C2=NC3(CCN(CC(C)C)CC3)NC2=C(NC(=O)/C(C)=C/C=C/[C@H](C)[C@H](O)[C@@H](C)[C@@H](O)[C@@H](C)[C@H](OC(C)=O)[C@@H]1C)C4=O [Rifabutin],0.164,0.0299,-0.423,0.921

SMILES,OMR-Perf [1],Prob-Test [2],Prob-Naive [3],Prob-Train [4]
C[C@]12C=CC(=O)C=C1CC[C@@H]1[C@H]2C(=O)C[C@@]2(C)[C@H]1CC[C@@]2(O)C(=O)CO [Prednisone],0.256,0.371,0.121,-0.128
C[C@@H]1CN(c2c(F)c(N)c3c(=O)c(C(=O)O)cn(C4CC4)c3c2F)C[C@H](C)N1 [Sparfloxacin],-0.423,0.26,0.493,-0.0293
C[N+](C)(CCOc1ccccc1)Cc1ccccc1.O=C(O)c1cc2ccccc2cc1[O-] [Bephenium Hydroxynaphthoate],0.133,0.43,-0.0583,0.412
C1N2CN3CN1CN(C2)C3 [Methenamine],-0.394,-0.565,0,-0.3
CCN1CCC[C@H]1CNC(=O)c1cc(S(N)(=O)=O)ccc1OC [Levosulpiride],0.258,0.139,0.0562,0.352
C[C@@H]1[C@H](C)C[C@@H](C(=O)O)C2CC[C@]3(C)C(=CC[C@H]4[C@@]5(C)CC[C@H](O)C(C)(C)[C@@H]5CC[C@]43C)[C@H]21 (stereo not given in full) [Ursolic Acid],-0.917,0.00467,-0.617,-0.383
C[C@@H]1C[C@H]2[C@@H]3C[C@H](F)C4=CC(=O)C=C[C@]4(C)[C@]3(F)[C@H](O)C[C@]2(C)[C@@]1(O)C(=O)CO [Flumethasone],0.264,-0.153,-0.42,-0.505
O=C1NCCc2[nH]c(-c3ccncc3)cc21,-0.243,0.14,-0.397,-0.165
C#C[C@@]1(O)CC[C@H]2[C@@H]3CCC4=CC(=O)CC[C@@H]4[C@@H]3CC[C@@]21CC [Levonorgestrel],-1.05,-0.643,-0.775,-0.979
Nc1ncnc2c1c(-c1cnc3[nH]ccc3c1)nn2C1CCCC1,-0.728,-0.0186,-0.581,0.226
CCOC(=O)c1c(C)n(C)c2ccc(O)cc12 [Mecarbinate],-0.115,-0.584,-0.435,-0.271
CN1C(CCl)Nc2cc(Cl)c(S(N)(=O)=O)cc2S1(=O)=O (stereo not given) [Methyclothiazide],-0.556,-0.0552,0.215,0.349
CN1CCN(C(c2ccccc2)c2ccccc2)CC1.Cl.Cl [Cyclizine 2HCl],-0.356,0.763,0.185,0.87
O=C(Nc1c(Cl)cncc1Cl)c1ccc(OC(F)F)c(OCC2CC2)c1 [Roflumilast],-0.471,-0.474,-0.326,-1.45
NC(=O)N1c2ccccc2C=Cc2ccccc21 [Carbamazepine],0.593,-0.169,0.0613,-0.0523
C[C@]12C[C@@]3(O)O[C@@H](O1)[C@]1(COC(=O)c4ccccc4)[C@H]3C[C@@]12O[C@@H]1O[C@H](CO)[C@@H](O)[C@H](O)[C@H]1O [Paeoniflorin],-0.551,0.711,0.516,0.192
O=C(CCCN1CCN(c2ccccn2)CC1)c1ccc(F)cc1 [Azaperone],-0.694,0.981,0.0839,1.69
Nc1ncnc2n[nH]c(Nc3ccc(F)cc3)c12,-0.128,0.0829,-0.0588,0.429
Cc1ccc2nc(NCCN)c3ncc(C)n3c2c1,-0.281,-0.274,-0.32,-0.301
O=C(/C=C/c1ccc(O)c(O)c1)c1ccc(O)cc1O [Butein],0.116,-0.107,-0.577,-0.559
CC(=O)Oc1ccc(C(c2ccc(OC(C)=O)cc2)c2ccccn2)cc1 [Bisacodyl],-0.0684,0.687,-0.545,-0.304
C=Cc1c(C)c2cc3nc(cc4[nH]c(cc5nc(cc1[nH]2)C(C)=C5CCC(=O)O)c(CCC(=O)OC)c4C)[C@@]1(C)C3=CC=C(C(=O)OC)[C@H]1C(=O)OC [Verteporfin (Visudyne)],-0.587,-0.0105,-0.525,-0.373
NC(=O)c1ncn([C@H]2O[C@H](CO)[C@@H](O)[C@H]2O)n1 [Ribavirin],-0.653,-0.0969,0.402,0.267
O=C(NC[C@H](O)CO)c1ccncc1Nc1ccc(I)cc1F,-0.587,-1.57,-0.212,-1.3
CCCc1cc(C)[nH]c(=O)c1CNC(=O)c1cc(-c2ccc(N3CCN(C(C)C)CC3)nc2)cc2c1cnn2C(C)C,-0.821,0.136,0.146,-0.626

# Whole records, looked up by structure:
# O=C(Nc1c(Cl)cncc1Cl)c1ccc(OC(F)F)c(OCC2CC2)c1 [Roflumilast] is listed as OMR-Perf [1]: -0.471; Prob-Test [2]: -0.474; Prob-Naive [3]: -0.326; Prob-Train [4]: -1.45
# CCOC(=O)c1c(C)n(C)c2ccc(O)cc12 [Mecarbinate] is listed as OMR-Perf [1]: -0.115; Prob-Test [2]: -0.584; Prob-Naive [3]: -0.435; Prob-Train [4]: -0.271
# C1N2CN3CN1CN(C2)C3 [Methenamine] is listed as OMR-Perf [1]: -0.394; Prob-Test [2]: -0.565; Prob-Naive [3]: 0; Prob-Train [4]: -0.3
